Target: T1, DYRK1A(h) (Homo sapiens, UniProt Q13627)
T1 construct: purchased Eurofins Scientific Inc. Korea (contract assay service)
Test: In vitro enzymatic assay (Eurofins, radiometric 33P-ATP)
Type: biochemical
Method: Enzymatic assays were performed by Eurofins Scientific Inc. Korea (Brussels, Belgium). […] The reaction was initiated by the addition of the MgATP mix. After incubation for 40 min at room temperature, the reaction was stopped by the addition of 3% phosphoric acid solution. Then, 10 μL of the reaction was then spotted onto a P30 filtermat and washed three times for 5 min in 75 mM phosphoric acid and once in methanol prior to drying and scintillation counting. […] All assays were performed in duplicate, and the average IC50 value was reported.

O=C1NC(=O)C(c2ccccc2[N+](=O)[O-])=C1Nc1ccc(O)c(Cl)c1 [SB-415286, 3-((3-chloro-4-hydroxyphenyl)amino)-4-(2-nitrophenyl)-1H-pyrrole-2,5-dione, reference compound]
IC50: 0.445 µM

Reference: publication PMC7554884, “Small Molecule Inhibitors of DYRK1A Identified by Computational and Experimental Approaches” (International Journal of Molecular Sciences, 2020)
